Counter-ions that a name gives are not always drawn. The list shows a part of the results. Repeats are few or missing, and single values can be far off.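 Three clinical Candida auris isolates (clades III, IV and I) from the CDC resistance isolate bank were grown in RPMI-1640 at 35°C. Growth was background-corrected OD600 relative to same-plate vehicle-only wells. Hits required over 50% inhibition in at least two strains and a plate-corrected B-score above 0.1.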
Key:
Test in all cases: growth relative to vehicle control (OD600 ratio) (fraction); higher = less inhibition
Settings in all cases: 24 h
[1] = test system: C. auris AR-384
[2] = test system: C. auris AR-386
[3] = test system: C. auris AR-387

| SMILES | growth ([1]; 1 µM) | growth ([1]; 10 µM) | growth ([2]; 1 µM) | growth ([2]; 10 µM) | growth ([3]; 1 µM) | growth ([3]; 10 µM) |
| --- | --- | --- | --- | --- | --- | --- |
| CCOC(=O)OC(C)OC1=C(C(=O)Nc2ccccn2)N(C)S(=O)(=O)c2ccccc21 (stereo unspecified) [Ampiroxicam] | 0.8 | 0.88 | 0.67 | 0.79 | 0.76 | 0.94 |
| CCc1cc(C(N)=S)ccn1 [Ethionamide] | 1.3 | 0.98 | 0.89 | 0.72 | 0.75 | 0.88 |
| CCCCCOC(=O)Nc1nc(=O)n([C@@H]2O[C@H](C)[C@@H](O)[C@H]2O)cc1F [Capecitabine] | 1.52 | 0.88 | 0.9 | 1.32 | 1.09 | 0.99 |
| Cc1ccc(C(=O)c2ccc(CC(=O)O)n2C)cc1 [Tolmetin Sodium] | 0.73 | 1.26 | 0.82 | 0.94 | 0.86 | 0.94 |
| O=C(O)c1cc(=O)c2c(OCC(O)COc3cccc4oc(C(=O)O)cc(=O)c34)cccc2o1 [Disodium Cromoglycate] | 1.19 | 0.93 | 0.82 | 1.02 | 0.81 | 0.94 |
| CCN1CCN(c2cc3c(cc2F)c(=O)c(C(=O)O)cn3C2CC2)CC1 [Enrofloxacin] | 1.38 | 1.19 | 1.4 | 1.26 | 1.35 | 1.43 |
| CO/N=C(\C(=O)N[C@@H]1C(=O)N2C(C(=O)O)=C(COC(C)=O)CS[C@H]12)c1csc(N)n1 [Cefotaxime sodium] | 1.11 | 0.97 | 1.11 | 0.96 | 1.17 | 1.12 |
| Nc1nccs1 [Aminothiazole] | 1.17 | 0.7 | 1 | 0.75 | 0.66 | 0.69 |
| CS(=O)(=O)CCNCc1ccc(-c2ccc3ncnc(Nc4ccc(OCc5cccc(F)c5)c(Cl)c4)c3c2)o1 | 0.78 | 0.51 | 0.62 | 0.7 | 0.82 | 0.84 |
| COC(=O)Nc1nc2cc([S+]([O-])c3ccccc3)ccc2[nH]1 (stereo unspecified) [Oxfendazole] | 0.95 | 0.89 | 0.95 | 1 | 1.06 | 1.04 |
| O=C(Nc1cccc2c(=O)cc(-c3nnn[nH]3)oc12)c1ccc(OCCCCc2ccccc2)cc1 [Pranlukast] | 0.67 | 0.75 | 0.78 | 0.78 | 0.99 | 0.79 |
| Nc1ccc(S(=O)(=O)Nc2nccs2)cc1 [Sulfathiazole] | 1.07 | 0.89 | 0.9 | 1.11 | 1.04 | 1.05 |
| NNC(=O)c1ccncc1.Nc1ccc(C(=O)O)c(O)c1 [Pasiniazid] | 0.85 | 0.65 | 0.78 | 0.73 | 0.77 | 0.95 |
| Cn1cnc2c(F)c(Nc3ccc(Br)cc3Cl)c(C(=O)NOCCO)cc21 [Selumetinib (AZD6244)] | 1.15 | 0.55 | 0.68 | 1.06 | 1.15 | 0.67 |
| CC(C)(C)Cn1c(N)nc2ccc(-c3[nH]c(C(C)(C)C)nc3-c3ccc(F)cc3)nc21 | 0.72 | 1.33 | 0.9 | 1.14 | 0.91 | 0.91 |
| NC(=O)c1cccc2cn(-c3ccc([C@@H]4CCCNC4)cc3)nc12 [Niraparib (MK-4827)] | 1.33 | 1.6 | 1.12 | 1.33 | 1.33 | 1.13 |
| CN(C)[C@@H]1C(O)=C(C(N)=O)C(=O)[C@@]2(O)C(O)=C3C(=O)c4c(O)ccc(Cl)c4[C@@H](O)[C@H]3C[C@@H]12 [Demeclocycline HCl] | 0.92 | 0.7 | 0.67 | 0.61 | 0.76 | 0.98 |
| CCCCC(CC)COC(=O)C(C#N)=C(c1ccccc1)c1ccccc1 (stereo unspecified) [Octocrylene] | 1.41 | 0.83 | 0.86 | 0.74 | 0.75 | 0.89 |
| CCCc1nc(C(C)(C)O)c(C(=O)OCc2oc(=O)oc2C)n1Cc1ccc(-c2ccccc2-c2nnn[nH]2)cc1 [Olmesartan Medoxomil] | 1.03 | 1.08 | 1.09 | 1.23 | 1.17 | 1.1 |
| N#Cc1ccc2[nH]cc(CCCCN3CCN(c4ccc5oc(C(N)=O)cc5c4)CC3)c2c1 [Vilazodone HCl] | 1.1 | 0.9 | 0.89 | 0.94 | 0.9 | 0.95 |
| CCn1cc(C(=O)O)c(=O)c2cc(F)c(N3CCN(C)CC3)cc21 [Pefloxacin Mesylate] | 0.59 | 0.44 | 0.64 | 0.85 | 0.67 | 0.64 |

| SMILES | growth ([1]; 1 µM) | growth ([1]; 10 µM) | growth ([2]; 1 µM) | growth ([2]; 10 µM) | growth ([3]; 1 µM) | growth ([3]; 10 µM) |
| --- | --- | --- | --- | --- | --- | --- |
| O=C(O)C1=C(CSc2nnnn2CS(=O)(=O)O)CS[C@@H]2[C@H](NC(=O)[C@H](O)c3ccccc3)C(=O)N12 [Cefonicid sodium] | 1.22 | 0.95 | 1.26 | 0.76 | 0.94 | 0.87 |
| Cc1nc(=O)c2cc(CN(C)c3ccc(C(=O)N[C@@H](CCC(=O)O)C(=O)O)s3)ccc2[nH]1 [Raltitrexed] | 1.14 | 1.28 | 1.23 | 1.35 | 1.26 | 1.28 |
| OC[C@@H](O)[C@@H](O)[C@H](O)[C@H](O)CO [D-Mannitol] | 0.87 | 0.91 | 0.83 | 0.61 | 0.66 | 0.68 |
| CCOC(=O)C1=C(C)NC(C)=C(C(=O)OC)C1c1cccc(Cl)c1Cl (stereo unspecified) [Felodipine] | 0.93 | 0.98 | 1.31 | 1.68 | 1.38 | 1.22 |
| CCOC(=O)[C@H](CCc1ccccc1)N[C@@H](C)C(=O)N1[C@H](C(=O)O)C[C@@H]2CCC[C@@H]21 [Ramipril] | 0.87 | 0.8 | 0.93 | 0.9 | 0.87 | 0.73 |
| CCC(=O)O[C@@H](O[P@](=O)(CCCCc1ccccc1)CC(=O)N1C[C@H](C2CCCCC2)C[C@H]1C(=O)O)C(C)C [Fosinopril Sodium] | 0.85 | 1.02 | 0.97 | 0.81 | 0.85 | 0.89 |
| CCCC(CCC)C(=O)O[C@H]1C[C@H]2CC[C@@H](C1)[N+]2(C)C [Anisotropine Methylbromide] | 0.86 | 0.83 | 1.08 | 1 | 0.66 | 0.92 |
| CC1(C)CCC(C)(C)c2cc(NC(=O)c3ccc(C(=O)O)cc3)ccc21 [Tamibarotene] | 0.85 | 1.1 | 0.83 | 1.03 | 1.15 | 0.91 |
| O=C1c2cccc3c2[C@H](CCC3)CN1[C@@H]1CN2CCC1CC2 [Palonosetron HCl] | 0.78 | 0.65 | 1.07 | 0.69 | 0.63 | 0.76 |
| FC(F)(F)c1ccc(CNc2ccc(Cc3c[nH]c4ncc(Cl)cc34)cn2)cn1 [Pexidartinib (PLX3397)] | 0.88 | 0.96 | 0.72 | 0.86 | 0.71 | 0.86 |
| CN(C)CCOC(C)(c1ccccc1)c1ccccn1 (stereo unspecified) [Doxylamine Succinate] | 0.79 | 0.91 | 1.01 | 1.27 | 0.92 | 1.01 |
| O=C([O-])c1ccccc1O.[Na+] [Sodium salicylate] | 0.98 | 0.75 | 0.86 | 1.06 | 1.03 | 1.16 |
| O=C(CCCCCCNC(=O)c1cnc(N(c2ccccc2)c2ccccc2)nc1)NO [Ricolinostat (ACY-1215)] | 0.78 | 0.76 | 1.07 | 0.75 | 0.87 | 0.79 |
| COc1cc(N)c(Cl)cc1C(=O)NC1CCN(CCCOc2ccc(F)cc2)CC1OC (stereo unspecified) [Cisapride hydrate] | 0.82 | 0.68 | 0.84 | 0.7 | 0.61 | 0.72 |
| C=CC[C@@H]1/C=C(\C)C[C@H](C)C[C@H](OC)[C@H]2O[C@@](O)(C(=O)C(=O)N3CCCC[C@H]3C(=O)O[C@H](/C(C)=C/[C@@H]3CC[C@@H](O)[C@H](OC)C3)[C@H](C)[C@@H](O)CC1=O)[C@H](C)C[C@@H]2OC [Tacrolimus (FK506)] | 1.1 | 1.25 | 0.78 | 0.97 | 0.88 | 1.09 |
| Cc1nnc(C(=O)NC(C)(C)c2nc(C(=O)NCc3ccc(F)cc3)c(O)c(=O)n2C)o1 [Raltegravir (MK-0518)] | 0.93 | 0.95 | 0.89 | 1.05 | 0.75 | 1.18 |
| CC1(C)S[C@@H]2[C@H](NC(=O)[C@H](N)c3ccccc3)C(=O)N2[C@H]1C(=O)O [Ampicillin sodium] | 1.19 | 1.26 | 1.27 | 1.02 | 1.03 | 0.76 |
| Nc1ncn([C@H]2C[C@H](O)[C@@H](CO)O2)c(=O)n1 [Decitabine] | 1 | 1.02 | 1.19 | 1.42 | 0.96 | 1.27 |
| CC[C@]1(O)C[C@H]2CN(CCc3c([nH]c4ccccc34)[C@@](C(=O)OC)(c3cc4c(cc3OC)N(C=O)[C@H]3[C@@](O)(C(=O)OC)[C@H](OC(C)=O)[C@]5(CC)C=CCN6CC[C@]43[C@@H]65)C2)C1 [Vincristine sulfate] | 0.89 | 0.54 | 0.4 | 0.73 | 0.67 | 0.65 |
| NCCCCC(NC(=O)C1CCCN1C(=O)C1CSSCC(N)C(=O)NC(Cc2ccc(O)cc2)C(=O)NC(Cc2ccccc2)C(=O)NC(CCC(N)=O)C(=O)NC(CC(N)=O)C(=O)N1)C(=O)NCC(N)=O (stereo unspecified) [Lypressin Acetate] | 0.72 | 0.52 | 0.76 | 1 | 0.81 | 0.57 |

Eleven entries out of the list, sorted by number of heavy atoms, smallest number first:

| SMILES | growth ([1]; 1 µM) | growth ([1]; 10 µM) | growth ([2]; 1 µM) | growth ([2]; 10 µM) | growth ([3]; 1 µM) | growth ([3]; 10 µM) |
| --- | --- | --- | --- | --- | --- | --- |
| Nc1ncn([C@H]2C[C@H](O)[C@@H](CO)O2)c(=O)n1 [Decitabine] | 1 | 1.02 | 1.19 | 1.42 | 0.96 | 1.27 |
| CCCC(CCC)C(=O)O[C@H]1C[C@H]2CC[C@@H](C1)[N+]2(C)C [Anisotropine Methylbromide] | 0.86 | 0.83 | 1.08 | 1 | 0.66 | 0.92 |
| O=C1c2cccc3c2[C@H](CCC3)CN1[C@@H]1CN2CCC1CC2 [Palonosetron HCl] | 0.78 | 0.65 | 1.07 | 0.69 | 0.63 | 0.76 |
| CC1(C)S[C@@H]2[C@H](NC(=O)[C@H](N)c3ccccc3)C(=O)N2[C@H]1C(=O)O [Ampicillin sodium] | 1.19 | 1.26 | 1.27 | 1.02 | 1.03 | 0.76 |
| CCOC(=O)C1=C(C)NC(C)=C(C(=O)OC)C1c1cccc(Cl)c1Cl (stereo unspecified) [Felodipine] | 0.93 | 0.98 | 1.31 | 1.68 | 1.38 | 1.22 |
| CC1(C)CCC(C)(C)c2cc(NC(=O)c3ccc(C(=O)O)cc3)ccc21 [Tamibarotene] | 0.85 | 1.1 | 0.83 | 1.03 | 1.15 | 0.91 |
| FC(F)(F)c1ccc(CNc2ccc(Cc3c[nH]c4ncc(Cl)cc34)cn2)cn1 [Pexidartinib (PLX3397)] | 0.88 | 0.96 | 0.72 | 0.86 | 0.71 | 0.86 |
| CCOC(=O)[C@H](CCc1ccccc1)N[C@@H](C)C(=O)N1[C@H](C(=O)O)C[C@@H]2CCC[C@@H]21 [Ramipril] | 0.87 | 0.8 | 0.93 | 0.9 | 0.87 | 0.73 |
| O=C(CCCCCCNC(=O)c1cnc(N(c2ccccc2)c2ccccc2)nc1)NO [Ricolinostat (ACY-1215)] | 0.78 | 0.76 | 1.07 | 0.75 | 0.87 | 0.79 |
| O=C(O)C1=C(CSc2nnnn2CS(=O)(=O)O)CS[C@@H]2[C@H](NC(=O)[C@H](O)c3ccccc3)C(=O)N12 [Cefonicid sodium] | 1.22 | 0.95 | 1.26 | 0.76 | 0.94 | 0.87 |
| CC[C@]1(O)C[C@H]2CN(CCc3c([nH]c4ccccc34)[C@@](C(=O)OC)(c3cc4c(cc3OC)N(C=O)[C@H]3[C@@](O)(C(=O)OC)[C@H](OC(C)=O)[C@]5(CC)C=CCN6CC[C@]43[C@@H]65)C2)C1 [Vincristine sulfate] | 0.89 | 0.54 | 0.4 | 0.73 | 0.67 | 0.65 |
